Measurements: PMC5542437, “Assembly and stoichiometry of the core structure of the bacterial flagellar type III export gate complex” (PLoS Biology, 2017)
These are yes or no findings as the source states them, for the method shown. For some assays here: Binding can be weak; no strength is given. Where a sequence is shown, tags or fusion partners need not be part of it. For some assays here: Binding seen in cells or lysates may run through a third protein.

Key:
[1] = biological target: T1, FliG-His (Salmonella enterica) (UniProt P0A1J9); assay: pull-down; Ni affinity copurification with FliG-His from SJW1368 co-expressing FlhA, FlhB, FliF, FliG-His, FliO, FliP, HA-FliQ and FliR-FLAG; membranes solubilised with 1% DDM
T1 sequence: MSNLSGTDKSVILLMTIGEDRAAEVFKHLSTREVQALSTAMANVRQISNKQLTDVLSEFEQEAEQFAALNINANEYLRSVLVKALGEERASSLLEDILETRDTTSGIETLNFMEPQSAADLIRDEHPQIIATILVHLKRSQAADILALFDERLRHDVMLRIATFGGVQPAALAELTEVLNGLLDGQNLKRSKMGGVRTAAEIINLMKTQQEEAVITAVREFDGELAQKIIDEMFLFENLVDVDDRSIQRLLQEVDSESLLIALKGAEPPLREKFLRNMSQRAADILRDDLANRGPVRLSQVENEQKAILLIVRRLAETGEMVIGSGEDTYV

[2] = biological target: T2, His-St-FliP (Salmonella FliP with a hexahistidine tag inserted between Gln-22 and Leu-23) (Salmonella enterica) (UniProt P54700); assay: SEC; Ni-purified His-FliP or FliO/His-FliP complexes (wild type and mutants) on Superdex 200 10/300; 20 mM Tris-HCl pH 8.0, 300 mM NaCl, 2 mM EDTA, 5% glycerol, 0.1% DDM; both purified
T2 sequence: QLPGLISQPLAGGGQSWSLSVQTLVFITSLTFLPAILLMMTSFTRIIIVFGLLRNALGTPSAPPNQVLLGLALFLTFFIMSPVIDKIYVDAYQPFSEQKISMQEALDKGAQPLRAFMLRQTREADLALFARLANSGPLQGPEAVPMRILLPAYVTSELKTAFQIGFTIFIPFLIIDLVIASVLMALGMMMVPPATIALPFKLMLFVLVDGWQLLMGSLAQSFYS

[3] = biological target: T2, His-St-FliP (Salmonella FliP with a hexahistidine tag inserted between Gln-22 and Leu-23) (Salmonella enterica); assay: SEC; Ni-purified material from LMNG-solubilised membranes on Superdex 200 10/300; 20 mM Tris-HCl pH 8.0, 150 mM NaCl, 2 mM EDTA, 5% glycerol, 0.01% LMNG; fractions immunoblotted; both purified
[4] = biological target: T2, His-St-FliP (Salmonella FliP with a hexahistidine tag inserted between Gln-22 and Leu-23) (Salmonella enterica); assay: pull-down; Ni-NTA copurification with His-FliP from SJW1368 co-expressing FlhA, FlhB, FliO, His-FliP, HA-FliQ and FliR-FLAG; membranes solubilised with 1% LMNG; immunoblot (lane L of Fig 6B)
[5] = biological target: T2, His-St-FliP (Salmonella FliP with a hexahistidine tag inserted between Gln-22 and Leu-23) (Salmonella enterica); assay: negative-stain electron microscopy with 2D class averaging; purified SEC peak fractions, 1.0% uranyl acetate, 100 kV; autocorrelation analysis for the rotational symmetry of the FliP ring; both purified
[6] = biological target: T3, FliR-FLAG (Salmonella enterica) (UniProt P54702); assay: pull-down; copurification from Salmonella SJW1368 co-expressing His-FliP with other export gate proteins; membranes solubilised with 1% DDM; Ni affinity, then anti-FLAG M2 affinity (eluted with FLAG peptide), then SEC on Superdex 200 10/300; SDS-PAGE with CBB
T3 sequence: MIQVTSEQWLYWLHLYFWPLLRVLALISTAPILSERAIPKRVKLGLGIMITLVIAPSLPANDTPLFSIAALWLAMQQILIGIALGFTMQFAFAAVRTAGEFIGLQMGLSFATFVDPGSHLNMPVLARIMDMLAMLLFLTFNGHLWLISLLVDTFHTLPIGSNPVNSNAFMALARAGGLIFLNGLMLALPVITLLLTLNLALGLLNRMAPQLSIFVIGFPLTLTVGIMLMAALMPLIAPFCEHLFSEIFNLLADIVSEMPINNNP

[7] = biological target: T2, His-St-FliP (Salmonella FliP with a hexahistidine tag inserted between Gln-22 and Leu-23) (Salmonella enterica); assay: as above
[8] = biological target: T2, His-St-FliP (Salmonella FliP with a hexahistidine tag inserted between Gln-22 and Leu-23) (Salmonella enterica); assay: pull-down; Ni-NTA copurification; His-FliP (wild type or mutant) co-expressed with FliO in Salmonella SJW1368; membranes solubilised with 1% DDM; 50 mM Tris-HCl pH 8.0, 300 mM NaCl, 5% glycerol, 20 mM imidazole, 0.1% DDM wash; 50-400 mM imidazole gradient; SDS-PAGE with CBB

FliO (Salmonella), co-expressed in Salmonella SJW1368 (from UniProt A0A2X4T7I8)
binding [1]: no binding | binding [2]: binds | binding [3]: binds weakly | binding [4]: binds | binding [5]: binds | binding [6]: binds | binding [7]: binds | binding [8]: binds
